PubChem BioAssay AID1508588 | Peter MacCallum Cancer Centre – 2020
Here is one part, drawn at random, of about 18,000 reagents tested. 790 of all reagents (4.4%) were called active. 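Calls rest on a combination of fold-change classes in drug and vehicle arms, not all shown here.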 Unmarked entries are inactive. Reagent sequences are not shown.

Screen: 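Knock-downs boosting vemurafenib effects on melanoma cell growth or lactate release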 (primary screen)
Cells: human WM266.4 melanoma cells (BRAF V600 mutant)
Reagents: siRNA pool against human genes, 40 nM
Time to read-out: 96 h from transfection to read-out
Challenge: vemurafenib 300 nM (about IC25), added 48 h after transfection, for 48 h; comparison arm got DMSO vehicle only
Measured: 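Cell gain (DAPI nuclei at end minus before drug, mean of two replicates) and medium lactate by absorbance per cell, both as ratio to non-targeting siRNA, also grouped into fold-change classes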
Reading the numbers: cell gain with vemurafenib: higher = more cell gain than with non-targeting siRNA; lactate per cell with vemurafenib: higher = more lactate made per cell
Rule for the call: 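a knock-down counts as enhancing when its fold-change classes with vehicle and with vemurafenib, taken together, show a stronger drug effect on cell gain or lactate per cell; exact class pairs not stated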
Meaning of the calls: active = enhances vemurafenib effect; inactive = no enhancement seen

| Target gene | cell gain with vemurafenib | lactate per cell with vemurafenib |
| --- | --- | --- |
| SELENOK (selenoprotein K) | 0.49 | 1.47 |
| TCAIM (T cell activation inhibitor, mitochondrial) | 0.59 | 0.66 |
| CRABP1 (cellular retinoic acid binding protein 1) | 0.44 | 0.68 |
| PAPOLG (poly(A) polymerase gamma) | 0.54 | 0.74 |
| CACNA2D1 | 0.51 | 0.86 |
| TPPP3 (tubulin polymerization promoting protein family member 3) | 0.52 | 0.6 |
| LCE3A (late cornified envelope 3A) | -0.02 | 2.16 |
| KLF16 (KLF transcription factor 16) | -0.03 | 1.53 |
| XPO4 (exportin 4) | 0.63 | 0.31 |
| ACP3 (acid phosphatase 3) | 0.69 | 0.8 |
| GNB2 (G protein subunit beta 2) | 0.59 | 0.79 |
| OR10J1 (olfactory receptor family 10 subfamily J member 1) | 0.94 | 0.58 |
| NDST4 (N-deacetylase and N-sulfotransferase 4) | 0.72 | 0.7 |
| FLT3LG (fms related receptor tyrosine kinase 3 ligand) | 0.46 | 1.05 |
| KRTAP4-11 (keratin associated protein 4-11) | 0.26 | 0.94 |
| LYRM7 (LYR motif containing 7) | 0.15 | 1.28 |
| ZNF665 (zinc finger protein 665) | 0.59 | 0.94 |
| NUP210 (nucleoporin 210) | 0.47 | 0.32 |
| POLG (DNA polymerase gamma, catalytic subunit) | 0.52 | 1.31 |
| EHD2 (EH domain containing 2) | 1.32 | 0.68 |
| CBL (Cbl proto-oncogene) | 1.04 | 0.64 |
| NMS (neuromedin S) | 0.32 | 2.98 |
| FAHD2B (fumarylacetoacetate hydrolase domain containing 2B) | 0.66 | 1.08 |
| SNUPN (snurportin 1) | 0.57 | 1.47 |
| HAPLN4 (hyaluronan and proteoglycan link protein 4) | 0.92 | 1.58 |
| ALDH1A3 (aldehyde dehydrogenase 1 family member A3) | 0.31 (active) | 0.62 |
| OR4N4 (olfactory receptor family 4 subfamily N member 4) | 0.41 | 0.86 |
| C3orf22 (chromosome 3 open reading frame 22) | 0.22 | 1.34 |
| AP5Z1 (adaptor related protein complex 5 subunit zeta 1) | 0.81 | 0.96 |
| UBXN10 (UBX domain protein 10) | 0.74 | 0.83 |
| MACO1 (macoilin 1) | 1.44 | 0.28 |
| RBFOX1 (RNA binding fox-1 homolog 1) | 1 | 0.78 |
| PUDP (pseudouridine 5'-phosphatase) | 0.77 | 1.26 |
| PECAM1 (platelet and endothelial cell adhesion molecule 1) | 0.31 | 0.8 |
| ZNF142 (zinc finger protein 142) | 0.19 | 1.1 |
| FAM171A1 (family with sequence similarity 171 member A1) | 0.53 | 0.83 |
| MMP21 (matrix metallopeptidase 21) | 0.72 | 0.64 |
| HDGFL1 (HDGF like 1) | 0.79 | 0.99 |
| AIMP1 | 0.08 | 0.78 |
| LIMK2 (LIM domain kinase 2) | 0.67 | 1.22 |
| NR4A3 (nuclear receptor subfamily 4 group A member 3) | 0.3 | 0.65 |
| ACAP1 (ArfGAP with coiled-coil, ankyrin repeat and PH domains 1) | 0.98 | 0.83 |
| PRAC1 (PRAC1 small nuclear protein) | 0.92 | 0.96 |
| DCAF12L2 (DDB1 and CUL4 associated factor 12 like 2) | 0.73 | 0.52 |
| CYP2D6 | 0.42 | 0.48 |
| TXNIP (thioredoxin interacting protein) | 0.31 | 1.04 |
| OR1L1 (olfactory receptor family 1 subfamily L member 1) | 0.6 | 0.38 |
| ANKS1B (ankyrin repeat and sterile alpha motif domain containing 1B) | 0.79 | 0.9 |
| ATP6V0D2 (ATPase H+ transporting V0 subunit d2) | 0.71 | 0.7 |
| OR2D2 (olfactory receptor family 2 subfamily D member 2) | 1 | 1.22 |
| SLC5A7 | 0.47 | 0.67 |
| ABCF1 (ATP binding cassette subfamily F member 1) | 0.67 | 0.24 |
| GPR82 (G protein-coupled receptor 82) | 0.48 | 0.84 |
| EHHADH (enoyl-CoA hydratase and 3-hydroxyacyl CoA dehydrogenase) | 0.67 | 1.06 |
| RFC1 (replication factor C subunit 1) | 0.82 | 0.68 |
| SACK1B (scaffolding CK1 anchoring protein B) | 1 | 0.84 |
| MYF6 (myogenic factor 6) | 0.31 | 1.08 |
| HMX2 (H6 family homeobox 2) | 0.65 | 1.7 |
| PXT1 (peroxisomal testis enriched protein 1) | 0.55 | 1.02 |
| MAP3K6 (mitogen-activated protein kinase kinase kinase 6) | 0.6 | 1.12 |
| HEPN1 (hepatocellular carcinoma, down-regulated 1) | 0.43 | 1.08 |
| POGLUT3 (protein O-glucosyltransferase 3) | 0.73 | 0.58 |
| SIPA1L2 (signal induced proliferation associated 1 like 2) | 0.24 | 0.82 |
| ARLN (allregulin) | 0.19 | 0.97 |
| ITGB1 (integrin subunit beta 1) | 0.91 | 0.5 |
| EIF5A (eukaryotic translation initiation factor 5A) | 1.02 | 0.9 |
| ACVR1 (activin A receptor type 1) | 0.75 | 0.94 |
| LRRC49 (leucine rich repeat containing 49) | 1.59 | 0.88 |
| XCL2 (X-C motif chemokine ligand 2) | 0.61 (active) | 0.66 |
| SPIDR (scaffold protein involved in DNA repair) | 0.6 | 0.66 |
| ZNF385A (zinc finger protein 385A) | 0.68 | 0.84 |
| RBP4 (retinol binding protein 4) | 0.24 | 3 |
| SPATC1 (spermatogenesis and centriole associated 1) | 0.31 | 1.08 |
| SPINK1 (serine peptidase inhibitor Kazal type 1) | 0.55 | 0.46 |
| CACNA1I (calcium voltage-gated channel subunit alpha1 I) | 0.62 | 0.43 |
| VCX3A (variable charge X-linked 3A) | 0.61 | 0.89 |
| OR9G4 (olfactory receptor family 9 subfamily G member 4) | 1.21 | 0.82 |
| ERLIN1 (ER lipid raft associated 1) | 0.77 | 0.6 |
| FAM9B (family with sequence similarity 9 member B) | 1.07 (active) | 0.3 |
| MMRN2 (multimerin 2) | 0.71 | 0.72 |
| UBOX5 (U-box domain containing 5) | 0.72 | 0.43 |
| HOOK2 (hook microtubule tethering protein 2) | 0.29 | 1.55 |
| PUM2 (pumilio RNA binding family member 2) | 0.48 | 1.1 |
| UBQLN4 (ubiquilin 4) | -0.04 | 1.69 |
| ZSCAN1 (zinc finger and SCAN domain containing 1) | 0.84 | 0.9 |
| ASH1L (ASH1 like histone lysine methyltransferase) | 0.4 | 0.74 |
| DBNL (drebrin like) | 0.67 | 1.54 |
| PPP2R3B (protein phosphatase 2 regulatory subunit B''beta) | 0.09 | 0.53 |
| KCNJ6 (potassium inwardly rectifying channel subfamily J member 6) | 0.78 | 1.04 |
| CTR9 (CTR9 component of Paf1/RNA polymerase II complex) | 0.44 (active) | 0.58 |
| CEP89 (centrosomal protein 89) | 0.27 | 1.93 |
| OTOL1 (otolin 1) | 0.41 | 0.52 |
| RTL8A (retrotransposon Gag like 8A) | 0.02 | 3.66 |
| CUZD1 (CUB and zona pellucida like domains 1) | 0.47 | 0.64 |
| GNG2 (G protein subunit gamma 2) | 1.1 | 1.46 |
| FRMD5 (FERM domain containing 5) | 0.24 | 2.9 |
| ATXN7 (ataxin 7) | 0.7 (active) | 0.48 |
| GALNT16 (polypeptide N-acetylgalactosaminyltransferase 16) | 0.85 | 0.89 |
| RAD17 (RAD17 checkpoint clamp loader component) | 0.61 | 1.12 |
| MX2 (MX dynamin like GTPase 2) | 0.24 | 1.62 |
| PCDHGB4 (protocadherin gamma subfamily B, 4) | 0 | 0 |
| PPP2R1A (protein phosphatase 2 scaffold subunit Aalpha) | 1 | 1.15 |
| TNRC6C (trinucleotide repeat containing adaptor 6C) | 0.17 | 3 |
| ZNF124 (zinc finger protein 124) | 1.25 | 0.74 |
| RUNDC3B (RUN domain containing 3B) | 0.36 | 0.76 |
| POU2F1 (POU class 2 homeobox 1) | 0.88 | 1.12 |
| ITGB4 (integrin subunit beta 4) | 0.42 | 1.09 |

Part of the list above, reformatted.
{"Target gene": "PXT1 (peroxisomal testis enriched protein 1)", "cell gain with vemurafenib": 0.55, "lactate per cell with vemurafenib": 1.02}
{"Target gene": "MAP3K6 (mitogen-activated protein kinase kinase kinase 6)", "cell gain with vemurafenib": 0.6, "lactate per cell with vemurafenib": 1.12}
{"Target gene": "HEPN1 (hepatocellular carcinoma, down-regulated 1)", "cell gain with vemurafenib": 0.43, "lactate per cell with vemurafenib": 1.08}
{"Target gene": "POGLUT3 (protein O-glucosyltransferase 3)", "cell gain with vemurafenib": 0.73, "lactate per cell with vemurafenib": 0.58}
{"Target gene": "SIPA1L2 (signal induced proliferation associated 1 like 2)", "cell gain with vemurafenib": 0.24, "lactate per cell with vemurafenib": 0.82}
{"Target gene": "ARLN (allregulin)", "cell gain with vemurafenib": 0.19, "lactate per cell with vemurafenib": 0.97}
{"Target gene": "ITGB1 (integrin subunit beta 1)", "cell gain with vemurafenib": 0.91, "lactate per cell with vemurafenib": 0.5}
{"Target gene": "EIF5A (eukaryotic translation initiation factor 5A)", "cell gain with vemurafenib": 1.02, "lactate per cell with vemurafenib": 0.9}
{"Target gene": "ACVR1 (activin A receptor type 1)", "cell gain with vemurafenib": 0.75, "lactate per cell with vemurafenib": 0.94}
{"Target gene": "LRRC49 (leucine rich repeat containing 49)", "cell gain with vemurafenib": 1.59, "lactate per cell with vemurafenib": 0.88}
{"Target gene": "XCL2 (X-C motif chemokine ligand 2)", "cell gain with vemurafenib": "0.61 (active)", "lactate per cell with vemurafenib": 0.66}
{"Target gene": "SPIDR (scaffold protein involved in DNA repair)", "cell gain with vemurafenib": 0.6, "lactate per cell with vemurafenib": 0.66}
